Data: PubChem BioAssay AID340 (DTP/NCI, 2004)
The list shows only some results of the screen, not a fair sample: it is rich in T/C values a quarter to a half above the control, in often repeated tests (any T/C) and in doses without a T/C. Further doses and runs are listed elsewhere. T/C is the treated group as % of the vehicle group. Some doses have a count of surviving animals in place of a T/C: the source holds a T/C of zero for them, seemingly a mark for toxic or unscored doses. Some survivor counts are full or nearly so, which does not show that the dose was tolerated: the source hardly ever lists a survival T/C far under the control, and the zero likely stands for such cases as well. Counts of survivors are from the toxicity check (mostly the fifth day) where no day follows; animals may have died later. Schedule codes are those of the source, taken here to give the interval after Q, in days (D) or hours (H), and the number of doses after X. Some entries were tested several times; the values are given in rising order. Where survival is the endpoint, this PubChem deposit counts one and a half times the control or more as active, and values a quarter to a half above the control carry no call in these data; other NCI protocols may use other cut-offs. Marks such as (2×) give the number of equal values in this list. Some T/C values carry the count of animals alive at the toxicity check (mostly the fifth day); where none is given, no animal had died by that day.

Tested on: CD2F1 mice, ip reticulum cell sarcoma, survival T/C
Test: NCI In Vivo Anticancer Drug Screen. Data for tumor model Reticulum Cell Sarcoma (Kelley Mouse) (intraperitoneal) in CD2F1 (CDF1) mice
Conditions: T/C endpoint: median survival time, schedule: Q01DX010 (ip), higher T/C = longer survival
Procedure: The antitumor activity of compounds was measured in mice bearing transplantable tumors. Survival or tumor size were measured and the results are expressed as the measurement made in the treated group (T) divided by the measurement made in the vehicle treated control group (C). The tumor model used in this assay is Reticulum Cell Sarcoma (Kelley Mouse) (intraperitoneal) in CD2F1 (CDF1) mice

[1] = dose: 20.0 mg/kg/injection, vehicle: saline
[2] = dose: 25.0 mg/kg/injection, vehicle: saline
[3] = dose: 50.0 mg/kg/injection, vehicle: saline
[4] = dose: 4.0 mg/kg/injection, vehicle: other
[5] = dose: 5.0 mg/kg/injection, vehicle: alkali diluted with saline
[6] = dose: 16.0 mg/kg/injection, vehicle: saline
[7] = dose: 64.0 mg/kg/injection, vehicle: saline
[8] = dose: 8.0 mg/kg/injection, vehicle: other
[9] = dose: 90.0 mg/kg/injection, vehicle: saline
[10] = dose: 200.0 mg/kg/injection, vehicle: saline
[11] = dose: 10.0 mg/kg/injection, vehicle: saline
[12] = dose: 0.19 mg/kg/injection, vehicle: other
[13] = dose: 0.38 mg/kg/injection, vehicle: other
[14] = dose: 0.75 mg/kg/injection, vehicle: other
[15] = dose: 1.5 mg/kg/injection, vehicle: other
[16] = dose: 3.0 mg/kg/injection, vehicle: other

O=C(O)c1[nH]c(=O)[nH]c(=O)c1F
survivor count [1]: 7 of 7

O=NN(CCCl)C(=O)NCCCl
survivor count [2]: 5 of 6 and 6 of 6 | survivor count [3]: 1 of 6 and 2 of 6

CCCCNc1ncnc2c1cnn2C
survivor count (dose: 250.0 mg/kg/injection, vehicle: saline): 0 of 6 and 1 of 6

O=C(Nc1ccc(C2=NCCN2)cc1)c1ccc(C(=O)Nc2ccc(C3=NCCN3)cc2)cc1
T/C [4]: 146 % of control | T/C (dose: 64.0 mg/kg/injection, vehicle: other): 140 % of control

O=C(O)CCCc1ccc(N(CCCl)CCCl)cc1
survivor count (dose: 3.13 mg/kg/injection, vehicle: saline): 3 of 6 | survivor count [2]: 0 of 6

OCC1OC(n2cnc3c(=S)nc[nH]c32)C(O)C1O (stereo unspecified)
T/C [1]: 137 % of control | T/C (dose: 160.0 mg/kg/injection, vehicle: saline): 141 % of control

S=c1nc[nH]c2nc[nH]c12
T/C [5]: 91, 114, 118 % of control | survivor count [5]: 6 of 6 | T/C (dose: 10.0 mg/kg/injection, vehicle: alkali diluted with saline): 98, 109, 113, 122 % of control | T/C (dose: 20.0 mg/kg/injection, vehicle: alkali diluted with saline): 122, 123 [5 of 6 alive], 130, 134 % of control | T/C (dose: 40.0 mg/kg/injection, vehicle: alkali diluted with saline): 118, 120 (2×), 138 % of control | T/C (dose: 80.0 mg/kg/injection, vehicle: alkali diluted with saline): 107, 131, 147, 153 % of control

Nc1nc(SCc2ccccc2)c2[nH]cnc2n1
T/C [6]: 129 % of control | T/C [7]: 133 % of control

N#CCSc1ncnc2nc[nH]c12
survivor count (dose: 120.0 mg/kg/injection, vehicle: saline): 0 of 6 | survivor count (dose: 240.0 mg/kg/injection, vehicle: saline): 0 of 6

O=C(Nc1ccc(C2=NCCCN2)cc1)c1ccc(C(=O)Nc2ccc(C3=NCCCN3)cc2)cc1
survivor count (dose: 2.0 mg/kg/injection, vehicle: other): 4 of 6 | survivor count [4]: 6 of 6 | survivor count [8]: 5 of 6

Nc1nc2n[nH]nc2c(=O)[nH]1
T/C (dose: 25.0 mg/kg/injection, vehicle: alkali diluted with saline): 126 and 136 % of control | T/C (dose: 50.0 mg/kg/injection, vehicle: alkali diluted with saline): 134 % of control (2×) | T/C (dose: 100.0 mg/kg/injection, vehicle: alkali diluted with saline): 131 and 142 % of control

C1CN1c1nc(N2CC2)nc(N2CC2)n1
survivor count (dose: 1.0 mg/kg/injection, vehicle: saline): 6 of 6 | survivor count (dose: 2.0 mg/kg/injection, vehicle: saline): 4 of 6

O=P1(N(CCCl)CCCl)NCCCO1 (stereo unspecified)
T/C (dose: 11.3 mg/kg/injection, vehicle: saline): 93, 97 (2×), 105 % of control | T/C (dose: 22.5 mg/kg/injection, vehicle: saline): 94, 107, 118, 120 % of control | T/C (dose: 45.0 mg/kg/injection, vehicle: saline): 107, 126, 130, 151 % of control | T/C [9]: 87 % of control | survivor count [9]: 5 of 6 and 6 of 6 | survivor count (dose: 180.0 mg/kg/injection, vehicle: saline): 6 of 6

COc1cc(-c2ccc(Nc3ccccc3C(=O)O)c(OC)c2)ccc1Nc1ccccc1C(=O)O
T/C [2]: 129 % of control | survivor count [10]: 3 of 6

CN(C)[C@@H]1C(=O)C(C(N)=O)=C(O)[C@@]2(O)C(=O)C3=C(O)c4c(O)cccc4C[C@H]3C[C@@H]12
survivor count (dose: 60.0 mg/kg/injection, vehicle: saline): 4 of 6

CS(=O)(=O)OCCCl
T/C (dose: 9.4 mg/kg/injection, vehicle: saline): 125 % of control | T/C (dose: 18.8 mg/kg/injection, vehicle: saline): 128 % of control | T/C (dose: 75.0 mg/kg/injection, vehicle: saline): 125 % of control | survivor count (dose: 150.0 mg/kg/injection, vehicle: saline): 3 of 6

O=C(Nc1ccc(C2=NCCN2)cc1)c1ccc(C(=O)Nc2ccc(C3=NCCN3)cc2)c([N+](=O)[O-])c1
T/C (dose: 6.0 mg/kg/injection, vehicle: saline): 139 % of control

C[C@@H]1C[C@@H]([C@H](O)CC2CC(=O)NC(=O)C2)C(=O)[C@@H](C)C1
T/C [1]: 127 % of control

N#[N+]c1cnc([O-])[nH]c1=O
T/C [11]: 127 % of control | survivor count [1]: 3 of 6

Cc1cc(N(CCCl)CCCl)ccc1N=Nc1ccccc1C(=O)O
T/C [11]: 132 % of control | survivor count (dose: 40.0 mg/kg/injection, vehicle: saline): 6 of 6 | survivor count (dose: 80.0 mg/kg/injection, vehicle: saline): 4 of 6

O=C(Nc1ccc(C2=NCCN2)cc1)c1cccc(C(=O)Nc2ccc(C3=NCCN3)cc2)c1
T/C (dose: 8.0 mg/kg/injection, vehicle: saline): 134 % of control | T/C [6]: 126 % of control | T/C (dose: 32.0 mg/kg/injection, vehicle: saline): 144 % of control

CN(C)/N=N/c1nc[nH]c1C(N)=O
T/C [10]: 128 and 132 % of control

CC(CCC(C)OS(C)(=O)=O)OS(C)(=O)=O (stereo unspecified)
survivor count [7]: 6 of 6

O=C(Nc1ccc(C2=NCCN2)cc1)c1ccc(C(=O)Nc2ccc(C3=NCCN3)cc2)c(Cl)c1
T/C [8]: 142 % of control | survivor count (dose: 32.0 mg/kg/injection, vehicle: other): 6 of 6

CS(=O)(=O)OCCC(=O)N1CCN(C(=O)CCOS(C)(=O)=O)CC1
T/C [2]: 126 and 130 % of control [5 of 6 alive] | T/C [3]: 141 % of control | T/C (dose: 100.0 mg/kg/injection, vehicle: saline): 133 % of control

NC(Cc1ccc(N(CCCl)CCCl)cc1)C(=O)O (stereo unspecified)
T/C (dose: 2.5 mg/kg/injection, vehicle: saline): 137 % of control | T/C (dose: 5.0 mg/kg/injection, vehicle: saline): 146 % of control | survivor count [1]: 6 of 6

CN(Cc1cnc2nc(N)nc(N)c2n1)c1ccc(C(=O)N[C@@H](CCC(=O)O)C(=O)O)cc1
T/C [12]: 87, 88, 111 % of control | survivor count [12]: 6 of 6 | T/C [13]: 89 and 95 % of control | survivor count [13]: 6 of 6 | T/C [14]: 92, 93, 94 % of control | survivor count [14]: 6 of 6 | T/C [15]: 89 and 96 % of control | survivor count [15]: 6 of 6 | T/C [16]: 86 and 92 % of control | survivor count [16]: 6 of 6
